Assay results from PubChem BioAssay AID256 (DTP/NCI, 2004).
The list is a part of this screen's results and no random one: it is rich in T/C values a quarter to a half above the control, in often repeated tests (any T/C) and in doses without a T/C. Further doses and runs are listed elsewhere. T/C: endpoint of the treated group in % of that of the vehicle group. Some doses have a count of surviving animals in place of a T/C: the source files T/C as zero there, which appears to mark a toxic dose or a test without result, not a measured value. Some survivor counts are full or nearly so, which does not show that the dose was tolerated: the source hardly ever lists a survival T/C far under the control, and the zero likely stands for such cases as well. Counts of survivors are from the toxicity check (mostly the fifth day) where no day follows; animals may have died later. Schedules are NCI's codes, read here as Q, the interval in days (D) or hours (H), X, the number of doses. Some entries were tested several times; the values are given in rising order. For survival time, the PubChem record calls one and a half times the control and up active, and a quarter to a half above the control has no call in these data; cut-offs in other NCI protocols can differ. Brackets with × say how often a value occurs here. Some T/C values are followed by the survivors on the day toxicity was checked, most often the fifth; without a count, all were alive then.

System: CD2F1 mice, L1210 leukemia ip, survival T/C
Assay: NCI In Vivo Anticancer Drug Screen. Data for tumor model L1210 Leukemia (intraperitoneal) in CD2F1 (CDF1) mice
Conditions: higher T/C = longer survival
How it was run: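 Tumor-bearing mice (transplanted tumor) were split into treated and vehicle control groups, and the measured endpoint of each treated group was divided by that of its vehicle controls.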

[1] = T/C endpoint: mean survival time, dose: 4.0 mg/kg/injection, schedule: Q01DX001 (ip), vehicle: saline
[2] = T/C endpoint: mean survival time, dose: 200.0 mg/kg/injection, schedule: Q04DX003 (ip), vehicle: saline with Tween-80

CC[C@]1(O)C[C@H]2CN(CCc3c([nH]c4ccccc34)[C@@](C(=O)OC)(c3cc4c(cc3OC)N(C=O)[C@H]3[C@@](O)(C(=O)OC)[C@H](OC(C)=O)[C@]5(CC)C=CCN6CC[C@]43[C@@H]65)C2)C1
T/C (T/C endpoint: mean survival time, dose: 0.03 mg/kg/injection, schedule: Q01DX005 (ip), vehicle: saline, evaluated on day 5): 103, 114, 120 % of control | T/C (T/C endpoint: mean survival time, dose: 0.03 mg/kg/injection, schedule: Q01DX005 (ip), vehicle: saline, evaluated on day 30): 114 and 119 % of control | T/C (T/C endpoint: mean survival time, dose: 0.03 mg/kg/injection, schedule: Q01DX005 (ip), vehicle: saline, evaluated on day 60): 103 % of control | T/C (T/C endpoint: mean survival time, dose: 0.06 mg/kg/injection, schedule: Q01DX005 (ip), vehicle: saline, evaluated on day 5): 116, 117, 122 % of control | T/C (T/C endpoint: mean survival time, dose: 0.06 mg/kg/injection, schedule: Q01DX005 (ip), vehicle: saline, evaluated on day 30): 116 and 120 % of control | T/C (T/C endpoint: mean survival time, dose: 0.06 mg/kg/injection, schedule: Q01DX005 (ip), vehicle: saline, evaluated on day 60): 117 % of control | T/C (T/C endpoint: mean survival time, dose: 0.12 mg/kg/injection, schedule: Q01DX005 (ip), vehicle: saline, evaluated on day 5): 122 and 124 % of control | T/C (T/C endpoint: mean survival time, dose: 0.12 mg/kg/injection, schedule: Q01DX005 (ip), vehicle: saline, evaluated on day 30): 120 and 124 % of control | T/C (T/C endpoint: mean survival time, dose: 0.13 mg/kg/injection, schedule: Q01DX005 (ip), vehicle: saline, evaluated on day 5): 126 % of control | T/C (T/C endpoint: mean survival time, dose: 0.13 mg/kg/injection, schedule: Q01DX005 (ip), vehicle: saline, evaluated on day 60): 126 % of control | T/C (T/C endpoint: mean survival time, dose: 0.13 mg/kg/injection, schedule: Q04DX003 (ip), vehicle: saline): 104, 105 (2×), 112, 114, 115, 117 % of control (2×) | T/C (T/C endpoint: mean survival time, dose: 0.22 mg/kg/injection, schedule: Q01DX009 (ip), vehicle: water): 139 % of control | T/C (T/C endpoint: mean survival time, dose: 0.25 mg/kg/injection, schedule: Q01DX005 (ip), vehicle: saline, evaluated on day 5): 117, 136, 142 % of control | T/C (T/C endpoint: mean survival time, dose: 0.25 mg/kg/injection, schedule: Q01DX005 (ip), vehicle: saline, evaluated on day 30): 136 and 140 % of control | T/C (T/C endpoint: mean survival time, dose: 0.25 mg/kg/injection, schedule: Q01DX005 (ip), vehicle: saline, evaluated on day 60): 110 % of control [9 of 10 alive] | T/C (T/C endpoint: mean survival time, dose: 0.25 mg/kg/injection, schedule: Q01DX009 (ip), vehicle: saline): 128 and 134 % of control | T/C (T/C endpoint: mean survival time, dose: 0.25 mg/kg/injection, schedule: Q04DX003 (ip), vehicle: saline): 105, 107, 110, 112, 115, 117, 118, 119 % of control | T/C (T/C endpoint: mean survival time, dose: 0.4 mg/kg/injection, schedule: Q04DX003 (ip), vehicle: saline): 131 % of control | T/C (T/C endpoint: mean survival time, dose: 0.5 mg/kg/injection, schedule: Q01DX001 (ip), vehicle: saline): 103, 106 (3×), 111, 114 (2×), 122 % of control | T/C (T/C endpoint: mean survival time, dose: 0.5 mg/kg/injection, schedule: Q01DX009 (ip), vehicle: saline): 128 % of control | T/C (T/C endpoint: mean survival time, dose: 0.5 mg/kg/injection, schedule: Q04DX003 (ip), vehicle: saline, evaluated on day 5): 121 and 127 % of control | T/C (T/C endpoint: mean survival time, dose: 0.5 mg/kg/injection, schedule: Q04DX003 (ip), vehicle: saline, evaluated on day 30): 114, 115, 115 [5 of 6 alive], 118 (2×), 121, 122, 128 % of control | survivor count (T/C endpoint: mean survival time, dose: 0.6 mg/kg/injection, schedule: Q01DX009 (ip), vehicle: water): 2 of 6 | T/C (T/C endpoint: mean survival time, dose: 0.65 mg/kg/injection, schedule: Q04DX003 (ip), vehicle: water): 130 % of control | T/C (T/C endpoint: mean survival time, dose: 0.8 mg/kg/injection, schedule: Q04DX003 (ip), vehicle: saline): 144 % of control | T/C (T/C endpoint: mean survival time, dose: 1.0 mg/kg/injection, schedule: Q01DX001 (ip), vehicle: saline): 105 [5 of 6 alive], 109, 112, 114 (2×), 117, 122, 126 % of control | T/C (T/C endpoint: mean survival time, dose: 1.0 mg/kg/injection, schedule: Q04DX003 (ip), vehicle: saline, evaluated on day 5): 127 and 141 % of control | T/C (T/C endpoint: mean survival time, dose: 1.0 mg/kg/injection, schedule: Q04DX003 (ip), vehicle: saline, evaluated on day 30): 118, 119, 122, 124 [5 of 6 alive], 132, 134, 137 [5 of 6 alive], 142 % of control | T/C (T/C endpoint: mean survival time, dose: 1.0 mg/kg/injection, schedule: Q04DX004 (ip), vehicle: saline): 129 % of control (2×) | T/C (T/C endpoint: mean survival time, dose: 1.08 mg/kg/injection, schedule: Q04DX003 (ip), vehicle: water): 140 % of control | T/C (T/C endpoint: mean survival time, dose: 1.3 mg/kg/injection, schedule: Q04DX003 (ip), vehicle: saline): 132 and 144 % of control | T/C (T/C endpoint: mean survival time, dose: 1.5 mg/kg/injection, schedule: Q04DX004 (ip), vehicle: saline): 133 and 141 % of control | T/C (T/C endpoint: mean survival time, dose: 2.0 mg/kg/injection, schedule: Q01DX001 (ip), vehicle: saline): 109, 111, 114 (2×), 117 (2×), 122, 129 % of control | T/C (T/C endpoint: mean survival time, dose: 2.0 mg/kg/injection, schedule: Q04DX003 (ip), vehicle: saline, evaluated on day 5): 151 % of control | T/C (T/C endpoint: mean survival time, dose: 2.0 mg/kg/injection, schedule: Q04DX003 (ip), vehicle: saline, evaluated on day 30): 91, 97, 102 [5 of 6 alive], 119, 130 % of control | T/C (T/C endpoint: mean survival time, dose: 2.0 mg/kg/injection, schedule: Q04DX003 (ip), vehicle: saline, evaluated on day 45): 140 and 150 % of control | survivor count (T/C endpoint: mean survival time, dose: 2.0 mg/kg/injection, schedule: Q04DX003 (ip), vehicle: saline): 3 of 6, 4 of 6, 6 of 6 | survivor count (T/C endpoint: mean survival time, dose: 3.2 mg/kg/injection, schedule: Q04DX003 (ip), vehicle: saline): 4 of 6 | survivor count (T/C endpoint: mean survival time, dose: 3.2 mg/kg/injection, schedule: Q04DX003 (ip), vehicle: water): 5 of 6 and 6 of 6 | T/C [1]: 103, 105 [5 of 6 alive], 112, 118, 121 [5 of 6 alive], 126, 140 % of control | survivor count [1]: 3 of 6 | survivor count (T/C endpoint: mean survival time, dose: 8.0 mg/kg/injection, schedule: Q01DX001 (ip), vehicle: saline): 0 of 6, 2 of 6, 3 of 6, 4 of 6, 5 of 6 | survivor count (T/C endpoint: mean survival time, dose: 16.0 mg/kg/injection, schedule: Q01DX001 (ip), vehicle: saline): 0 of 6 | T/C (T/C endpoint: mean survival time, dose: 600.0 micrograms/kg/injection, schedule: Q01DX009 (ip), vehicle: water): 125 % of control | T/C (T/C endpoint: median survival time, dose: 250.0 micrograms/kg/injection, schedule: Q01DX009 (ip), vehicle: water): 132 % of control | T/C (T/C endpoint: median survival time, dose: 500.0 micrograms/kg/injection, schedule: Q01DX009 (ip), vehicle: water): 134 % of control

CC(C)COC(=O)c1ccc(NC(=O)Nc2ccccc2Cl)cc1
survivor count [2]: 6 of 6 | survivor count (T/C endpoint: mean survival time, dose: 400.0 mg/kg/injection, schedule: Q01DX009 (ip), vehicle: saline with Tween-80): 2 of 6

CC(C)([NH-])C[NH-].[Cl][Pt+2][Cl]
survivor count (T/C endpoint: median survival time, dose: 320.0 mg/kg/injection, schedule: Q04DX003 (ip), vehicle: saline with Tween-80): 0 of 6

[Cl][Sn]([c]1ccccc1)([c]1ccccc1)[c]1ccccc1
survivor count (T/C endpoint: mean survival time, dose: 20.0 mg/kg/injection, schedule: Q04DX003 (ip), vehicle: saline with Tween-80): 6 of 6 | survivor count (T/C endpoint: mean survival time, dose: 40.0 mg/kg/injection, schedule: Q04DX003 (ip), vehicle: saline with Tween-80): 2 of 6 | survivor count (T/C endpoint: mean survival time, dose: 100.0 mg/kg/injection, schedule: Q01DX001 (ip), vehicle: saline): 2 of 4 | survivor count (T/C endpoint: mean survival time, dose: 200.0 mg/kg/injection, schedule: Q01DX001 (ip), vehicle: saline): 0 of 4 | survivor count (T/C endpoint: mean survival time, dose: 400.0 mg/kg/injection, schedule: Q01DX001 (ip), vehicle: saline): 0 of 4

O=S(=O)(F)c1ccc(N=C=S)cc1
survivor count (T/C endpoint: mean survival time, dose: 50.0 mg/kg/injection, schedule: Q01DX009 (ip), vehicle: saline with Tween-80): 2 of 6

Cc1ccc(CN(C)N=Nc2ccc(C(=O)O)cc2)cc1
survivor count (T/C endpoint: mean survival time, dose: 400.0 mg/kg/injection, schedule: Q01DX009 (ip), vehicle: other): 0 of 3

NNC(=O)c1cc(Cl)cc(C(=O)NN)n1
survivor count (T/C endpoint: mean survival time, dose: 100.0 mg/kg/injection, schedule: Q01DX009 (ip), vehicle: saline with Tween-80): 0 of 6 | survivor count (T/C endpoint: mean survival time, dose: 100.0 mg/kg/injection, schedule: Q04DX003 (ip), vehicle: saline sonified): 5 of 6 | survivor count (T/C endpoint: mean survival time, dose: 200.0 mg/kg/injection, schedule: Q01DX009 (ip), vehicle: saline with Tween-80): 3 of 6 | survivor count (T/C endpoint: mean survival time, dose: 200.0 mg/kg/injection, schedule: Q04DX003 (ip), vehicle: saline sonified): 4 of 6 | survivor count (T/C endpoint: mean survival time, dose: 400.0 mg/kg/injection, schedule: Q04DX003 (ip), vehicle: saline sonified): 1 of 6

COc1cc(OC)c(/C=C/c2ccc3ccccc3[n+]2C)c(OC)c1
survivor count (T/C endpoint: mean survival time, dose: 100.0 mg/kg/injection, schedule: Q04DX003 (ip), vehicle: saline with Tween-80): 0 of 6 | survivor count [2]: 0 of 6 | survivor count (T/C endpoint: mean survival time, dose: 400.0 mg/kg/injection, schedule: Q04DX003 (ip), vehicle: saline with Tween-80): 0 of 6
